Experimental data: US8338422B2, “Indolin-2-ones and aza-indolin-2-ones” (Janssen Pharmaceutica NV, priority 2007, dated 2012)
Some entries of the source have several records that differ or are many. The other results are left out here. The source may hold further records. Values given together differ, and nothing given here explains why; some may be repeats, others may stem from another dose, organism or construct than stated.

The chains behind the UniProt entries cited, without tags or fusion partners.
UniProt O00444, whole entry: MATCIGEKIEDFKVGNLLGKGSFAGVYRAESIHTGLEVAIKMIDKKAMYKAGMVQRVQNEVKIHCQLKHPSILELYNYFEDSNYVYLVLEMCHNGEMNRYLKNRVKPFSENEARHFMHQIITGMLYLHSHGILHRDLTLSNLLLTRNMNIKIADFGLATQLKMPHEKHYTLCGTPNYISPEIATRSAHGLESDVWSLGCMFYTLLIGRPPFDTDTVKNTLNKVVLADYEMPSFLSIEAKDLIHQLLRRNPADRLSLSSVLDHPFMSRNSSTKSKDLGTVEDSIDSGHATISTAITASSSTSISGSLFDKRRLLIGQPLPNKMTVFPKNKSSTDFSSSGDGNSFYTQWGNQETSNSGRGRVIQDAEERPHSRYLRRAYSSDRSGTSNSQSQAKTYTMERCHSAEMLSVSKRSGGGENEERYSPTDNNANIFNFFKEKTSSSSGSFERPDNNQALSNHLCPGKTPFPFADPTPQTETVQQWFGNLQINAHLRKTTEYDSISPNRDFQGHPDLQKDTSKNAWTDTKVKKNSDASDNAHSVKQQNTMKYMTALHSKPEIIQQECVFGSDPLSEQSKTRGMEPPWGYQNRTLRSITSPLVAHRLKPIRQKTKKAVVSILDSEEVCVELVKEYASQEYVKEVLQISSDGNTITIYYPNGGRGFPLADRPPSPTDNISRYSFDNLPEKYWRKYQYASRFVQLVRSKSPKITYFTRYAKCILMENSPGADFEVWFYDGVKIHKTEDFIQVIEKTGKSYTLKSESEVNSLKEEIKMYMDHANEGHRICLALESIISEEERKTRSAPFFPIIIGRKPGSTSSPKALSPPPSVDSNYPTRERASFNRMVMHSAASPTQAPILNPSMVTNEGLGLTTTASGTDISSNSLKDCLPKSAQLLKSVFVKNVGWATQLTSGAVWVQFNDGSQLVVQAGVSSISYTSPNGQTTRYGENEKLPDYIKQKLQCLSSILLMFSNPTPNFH
UniProt P49841, whole entry: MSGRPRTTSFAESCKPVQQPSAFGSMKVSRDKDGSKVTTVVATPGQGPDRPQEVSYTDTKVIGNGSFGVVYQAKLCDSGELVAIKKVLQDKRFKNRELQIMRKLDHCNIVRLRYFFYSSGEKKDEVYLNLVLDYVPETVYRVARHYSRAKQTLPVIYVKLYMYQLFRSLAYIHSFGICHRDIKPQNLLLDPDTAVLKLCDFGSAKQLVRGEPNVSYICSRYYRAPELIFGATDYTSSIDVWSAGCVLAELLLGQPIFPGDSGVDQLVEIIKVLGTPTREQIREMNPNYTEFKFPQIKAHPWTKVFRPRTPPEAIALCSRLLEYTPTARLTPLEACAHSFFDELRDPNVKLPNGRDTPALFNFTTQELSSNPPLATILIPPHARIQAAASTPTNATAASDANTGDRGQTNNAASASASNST

Key:
[1] = biological target: PLK4 (h) (Homo sapiens, UniProt O00444); experiment: PLK-4 human kinase assay (SPA)
Method: (§1) The in vitro inhibition of a panel of kinases was assessed using either the scintillation proximity assay (SPA) as described by Cook, N. D. et al., Advances in Experimental Medicine and Biology (1991), 36; p. 525-528; or the Fluorescence Resonance Energy Transfer (FRET) technology as described by Rodems, S. M. et al., Assay Drug Develop. Technol. (2002), 1; p. 9-19.
(§2) In the SPA technology the activity of the kinase of interest is measured using an appropriate biotinylated substrate that is incubated with the aforementioned kinase protein in the presence of (^33P) radiolabeled ATP. (^33P) Phosporylation of the substrate is subsequently measured through binding of the phosphorylated substrate to streptavidine coated beads that are based on the scintillant poly(vinyl toluene) (PVT-Beads). The scintillation intensity is detected by imaging on Leadseeker.
(§3) All kinases are pre-diluted to a 10× working concentration prior to addition into the assay. The composition of the dilution buffer for each kinase is detailed below.
In a final reaction volume of 30 μl PLK4 (h) (19 μg/ml) is incubated with 50 mM Hepes pH 8.0, 10 mM MgCl2, 50 mM NaCl, 1 mM NaF, 1 mM DTT, 10 μM of peptide Biotin-RPRGQRDSSYYWE-OH, 1 μM ATP and 2 nM [γ-^33P-ATP] (6.0 μCi/ml). […] The plate is centriguged and read for Scintillation imaging on Leadseeker.

[2] = biological target: GSK3β (h) (Homo sapiens, UniProt P49841); experiment: GSK-3β human kinase assay (SPA)
Method: as §1, §2, §3
In a final reaction volume of 30 μl, GSK3β (h) (1 μg/ml) is incubated with 25 mM Tris pH 7.4, 10 mM MgCl2, 1 mM DTT, 1 μM peptide Biotin-KRREILSRRPSYR-OH, 1 μM ATP and 2 nM [γ-^33P-ATP] (6.0 μCi/ml). […] The plate is centriguged and read for Scintillation imaging on Leadseeker.

Structure (SMILES): CN1CCCNc2ncnc3c2/C(=C/Nc2ccc(Cl)c(c2)OCCN2C[C@H](O)C[C@@H]2C1=O)C(=O)N3
- PLK4 pIC50 [1]: <5 and 5.16

Structure (SMILES): CN1CCNc2ncnc3c2/C(=C/Nc2cccc(c2)OCCCN2C[C@H](O)C[C@@H]2C1=O)C(=O)N3
- PLK4 pIC50 [1]: 5.14 and 5.64
- GSK3B pIC50 [2]: 5.21, 5.24, 6.19
